Results reported in PMC5764417.

Chains of the proteins cited; added tags and fusions are not shown. Lines headed by an entry give the natural chain unless they say otherwise; changes in a name come on top.
UniProt Q57WR0: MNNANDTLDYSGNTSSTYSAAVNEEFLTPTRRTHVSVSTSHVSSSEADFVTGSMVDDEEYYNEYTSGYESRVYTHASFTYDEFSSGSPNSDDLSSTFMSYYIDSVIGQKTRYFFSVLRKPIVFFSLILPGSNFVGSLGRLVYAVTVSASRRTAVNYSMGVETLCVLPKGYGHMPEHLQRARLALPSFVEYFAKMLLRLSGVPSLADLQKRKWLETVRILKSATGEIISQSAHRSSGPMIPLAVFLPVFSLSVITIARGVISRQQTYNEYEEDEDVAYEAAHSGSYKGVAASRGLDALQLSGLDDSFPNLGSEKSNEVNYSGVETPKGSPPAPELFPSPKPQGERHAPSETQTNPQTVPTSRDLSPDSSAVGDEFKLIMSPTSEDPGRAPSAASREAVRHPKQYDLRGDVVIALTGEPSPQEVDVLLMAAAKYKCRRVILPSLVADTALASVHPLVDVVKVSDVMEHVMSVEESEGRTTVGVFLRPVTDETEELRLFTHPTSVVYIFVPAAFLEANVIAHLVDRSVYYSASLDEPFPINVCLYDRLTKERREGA
UniProt Q57YB6: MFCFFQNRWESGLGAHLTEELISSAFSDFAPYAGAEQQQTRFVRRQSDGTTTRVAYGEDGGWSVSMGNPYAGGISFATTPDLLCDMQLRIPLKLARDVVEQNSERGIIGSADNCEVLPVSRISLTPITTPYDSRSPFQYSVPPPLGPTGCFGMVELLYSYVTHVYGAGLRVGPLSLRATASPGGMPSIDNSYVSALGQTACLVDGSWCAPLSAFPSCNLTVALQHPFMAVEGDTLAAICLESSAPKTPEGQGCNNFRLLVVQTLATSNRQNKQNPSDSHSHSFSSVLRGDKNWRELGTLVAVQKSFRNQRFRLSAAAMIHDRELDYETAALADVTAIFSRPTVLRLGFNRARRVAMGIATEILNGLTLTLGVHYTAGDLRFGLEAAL
UniProt Q581S0: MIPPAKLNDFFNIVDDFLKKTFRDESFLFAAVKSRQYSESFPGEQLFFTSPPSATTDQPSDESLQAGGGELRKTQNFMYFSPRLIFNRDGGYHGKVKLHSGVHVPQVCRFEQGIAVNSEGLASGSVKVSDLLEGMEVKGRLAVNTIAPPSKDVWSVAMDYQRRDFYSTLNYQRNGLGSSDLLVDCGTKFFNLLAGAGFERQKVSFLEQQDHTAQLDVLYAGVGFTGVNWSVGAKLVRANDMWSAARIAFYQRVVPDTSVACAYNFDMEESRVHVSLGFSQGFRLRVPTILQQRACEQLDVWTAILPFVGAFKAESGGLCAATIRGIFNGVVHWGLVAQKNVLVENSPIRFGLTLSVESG

What was measured:
Assay in all cases: affinity purification with mass spectrometry; SILAC-IP: cells with and without the tagged bait mixed, solubilized in 20 mM Tris-HCl pH 7.4, 0.1 mM EDTA, 100 mM NaCl, 10% glycerol, 1.5% digitonin; anti-HA or anti-Myc affinity beads, 2 h at 4°C; eluates analysed by quantitative LC-MS; three biological replicates
[1] = molecular target: Myc-tagged TAC60 (T. brucei) (UniProt Q57WR0)
[2] = molecular target: in situ HA-tagged TAC42 (T. brucei) (UniProt Q57YB6)
[3] = molecular target: in situ HA-tagged TAC40 (T. brucei) (UniProt Q581S0)

Substance	binding [1]	binding [2]	binding [3]
TAC40 (from UniProt Q581S0)	binds	binds	
TAC42 (from UniProt Q57YB6)	binds		
TAC60 (from UniProt Q57WR0)		binds	binds

No constants are given. Whether binding was seen depends on the method and setting. In cells and extracts the contact can be indirect. Here binding means that the protein was enriched with, or labelled near, the bait; the list need not be complete.
